Test results taken from US20180325893A1, “SUBACUTE ADMINISTRATION OF NMDA MODULATORS ALONE OR IN COMBINATION” (Northwestern University, priority 2015, published 2018).
“Also recorded” adds a separate entry of the source. For at least one compound, name, drawing or mass did not settle the structure.

System: male C57BL/6J mice
Test: NOR in subchronic ketamine-treated mice (Examples 2 and 3)
Format: in vivo
Conditions: subchronic ketamine-treated mice given sub-effective dose rapastinel 0.3 mg/kg and/or sub-effective dose lurasidone 0.1 mg/kg
Experimental: Three cohorts of male C57BL/6J mice (2½-3 month old, Jackson, Mass., USA), N=40, 45, and 48 were used in Examples 1, 2, 3 respectively. Mice were group housed (five/cage) in a controlled environment held at 21±2° C. and 50±15% relative humidity with a 14:10 h light-dark period (lights on: 05:00 am). All experiments were conducted during the light phase. Food and water were available ad libitum. The mice were habituated to the colony upon arrival for a week, during which time, they were not handled. All experiments were conducted in accordance with Institutional Animal Care and Use Committee of Northwestern University, Chicago.
Rapastinel was obtained from SAI Life Sciences (India). PCP was a generous gift from National Institute of Drug Abuse. Ketamine was purchased from Sigma Aldrich (St. Louis, Mo.). […] The dose for lurasidone (0.1 mg/kg) was chosen based on prior NOR studies in C57BL/6J mice which determined the effective dose of lurasidone to restore NOR in subchronic PCP-treated mice. […]
NOR testing in mice was slightly modified from Hashimoto et al (Hashimoto K.; Fujita Y.; Shimizu E.; Iyo M. European Journal of Pharmacology 2005, 519:114-7). […] Behavior was recorded on video for blind scoring of object exploration. […] The discrimination index (DI) [(time spent exploring the novel object—time spent exploring the familiar object)/total exploration time] was then calculated for retention trials. […]

O=C1[C@@H]2[C@H]3CC[C@H](C3)[C@@H]2C(=O)N1C[C@@H]1CCCC[C@H]1CN1CCN(c2nsc3ccccc23)CC1 [lurasidone, Lurasidone]
discrimination index (DI) / NOR deficit (Example 3, FIG. 3): neither drug above at these doses was effective; also recorded: significant reductions in the DI | preference for novel versus familiar object, retention trial (Example 3): abolished
